Results are given in words; binding and its absence hold for the method and conditions named.
Assays:
[1] = molecular target: perdeuterated full-length N-acetylglucosamine-binding protein A (D-GbpA-FL) (Vibrio cholerae) (UniProt Q9KLD5); assay: SAXS; 40.0 uM H-GbpA-FL or 32.0 uM D-GbpA-FL in 100 mM NaCl, 20 mM Tris-HCl pH 8.0; Bruker NanoStar, 24 °C; oligomeric state in solution; both purified
[2] = molecular target: hydrogenated full-length N-acetylglucosamine-binding protein A (H-GbpA-FL) (Vibrio cholerae) (UniProt Q9KLD5); assay: as above

Row | Substance | binding [1] | binding [2]
1 | perdeuterated full-length N-acetylglucosamine-binding protein A (D-GbpA-FL) (from UniProt Q9KLD5 24-485) (enzyme) | no binding (tested: 32.0 uM) | 
2 | hydrogenated full-length N-acetylglucosamine-binding protein A (H-GbpA-FL) (from UniProt Q9KLD5 24-485) (enzyme) |  | no binding (tested: 40.0 uM)
